Data on 53 sequences can be found in the supplement of paper PMC10338343.

± gives the standard deviation. The entries are a selection whose mix differs from that of the whole data set. Many entries were measured with a wide error.

Assay [1] relates to MILI (PIWIL2) piRISC loaded with piRNA #1 (26 nt). The assay can be described thus: pre-steady-state target cleavage rate (min^-1); MIWI and MILI are mouse PIWI proteins and EfPiwi is from a freshwater sponge; tags in brackets are library labels; higher = faster piRNA-guided slicing of the target. As to conditions: guide: piRNA #1 5'p-UGAGGUAGUAGGUUGUAUAGUAUCCA; auxiliary factor: 500 nM mouse GTSF1. In a few lines: (§1)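 Reactions were run for 0–8 or 0–960 min at 33 °C in HEPES–potassium acetate buffer, combining 1 nM active affinity-purified piRISC with one synthetic guide, […] transcribed, DNA-blocked target RNA library and, in some cases, 500 nM GTSF1 partner protein. Sequencing of uncleaved targets followed, with normalisation to depth and to weakly complementary targets. Three trials were pooled, k3 was capped at 0.0001 min^-1, and the pre-steady-state cleavage rate was taken from a burst-and-steady-state fit.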

Assay [2] deals with MIWI (PIWIL1) piRISC loaded with piRNA #1 (30 nt). The description is as above. As to conditions: guide: piRNA #1 5'p-UGAGGUAGUAGGUUGUAUAGUAUCCAGAGG; auxiliary factor: 500 nM mouse GTSF1. Put shortly:
as §1
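Also: 1 nM active piRISC with 0.1 nM target library at 33 °C single turnover.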

GGAGACCUAUGAUAUCAACCUCCUACCUCA: the “pre-steady-state target cleavage rate” value in assay [1] amounted to 0.0026 ± 0.003; in assay [2], 0.00184 ± 0.0024.

Consider GGAGACCUAUGAAAACAACCUACUACCUGA, for which the “pre-steady-state target cleavage rate” value in assay [1] was 0.00141 ± 0.0046; in assay [2], 0.000925 ± 0.0053.

As to GGAGACCUAUCUAUACAGACCUACUACCUCA, the “pre-steady-state target cleavage rate” value is 0.000874 ± 0.0077 in assay [1] and 0.000684 ± 0.0085 in assay [2].

On to GGAGACCUAUGAAUACAACCUACAUGCUCA, for which the “pre-steady-state target cleavage rate” value in assay [1] was found to be 0.00139 ± 0.0035; in assay [2] it was 0.000106 ± 0.029.

With GGAGACCUAUCUAUACAACCUUGAACCUCA, the “pre-steady-state target cleavage rate” value in assay [1] was determined as 0.000231 ± 0.013; in assay [2], 0.000157 ± 0.018.

Turning to GGAGUGGAUACUAUACACACCUACUACCUCA, the figures for the “pre-steady-state target cleavage rate” value in assay [1] and in assay [2] were 0.00125 ± 0.0053 and 0.000341 ± 0.019, respectively.

As to GGAGACCUAUGAUUUCAACCUACUACCUGA, the “pre-steady-state target cleavage rate” value stood at 0.000897 ± 0.0055 in assay [1] and 0.000183 ± 0.0096 in assay [2].

Turning to GGAGUGGAUACUAUACAACCUAGUAGCUCA, the “pre-steady-state target cleavage rate” value in assay [1] was found to be 0.00033 ± 0.0094; in assay [2], 0.000461 ± 0.0078.

With GGAGACCUAUGAUAUCAACGAUCUACCUCA, the “pre-steady-state target cleavage rate” value came to 0.000753 ± 0.0095 in assay [1] and 0.000775 ± 0.0084 in assay [2].

With GGAGACCUAUGUAAACAACCAACUACCUCA, the “pre-steady-state target cleavage rate” value in assay [1] turned out to be 0.0019 ± 0.004; in assay [2], 0.000201 ± 0.014.

In the case of GGAGACGAUACUAUACAACCCUACUACCUCA, the “pre-steady-state target cleavage rate” value in assay [1] came to 0.0031 ± 0.0035; in assay [2] it was 0.000775 ± 0.0088.

“GGAGACCUAUGAUAUCAACCUACUACCUCU [g2:g15:cont:t1U]”: the “pre-steady-state target cleavage rate” value in assay [1] came out at 0.00186 ± 0.0028; in assay [2] it was 0.000315 ± 0.0079.

Turning to GGAGACCUUACUAUACAACCUAUACCUCA, the “pre-steady-state target cleavage rate” value in assay [1] was determined as 0.00221 ± 0.0035; in assay [2], 0.00037 ± 0.014.

Regarding GGAGAGGAUACUAUACACACCUACUACCUCA, the “pre-steady-state target cleavage rate” value in assay [1] stood at 0.00289 ± 0.0044; in assay [2] it was 0.00126 ± 0.0075.

Consider GGAGACCUAUGAUAUGAAGGUACUACCUCA, for which the “pre-steady-state target cleavage rate” value in assay [1] turned out to be 0.000607 ± 0.0083; in assay [2], 0.00125 ± 0.0052.

On to GGAGACCUAUCUAUACAACCACUACCUCA, for which the “pre-steady-state target cleavage rate” value in assay [1] came out at 0.00188 ± 0.005; in assay [2] it was 0.00125 ± 0.0056.

Turning to GGAGACCUAUGAUUUCAACCUAGUACCUCA, the “pre-steady-state target cleavage rate” value is 0.0013 ± 0.005 in assay [1] and 0.00045 ± 0.007 in assay [2].

In the case of GGAGACCUAUGAUUACAACCUACUACGACA, the entries for the “pre-steady-state target cleavage rate” value in assay [1] and in assay [2] were 0.00147 ± 0.0043 and 0.00028 ± 0.0084, respectively.

For GGAGACCUAUGAUAUGUUGGUAGUACCACA, the entries for the “pre-steady-state target cleavage rate” value in assay [1] and in assay [2] were 0.000412 ± 0.017 and 0.000661 ± 0.012, respectively.

In the case of GGAGACCUAUGAUAUCUACCUACUACCACA, the figures for the “pre-steady-state target cleavage rate” value in assay [1] and in assay [2] were 0.000263 ± 0.021 and 0.000102 ± 0.021, respectively.

In the case of GGAGACCAUACUAUACUAACCUACUACCUCA, the “pre-steady-state target cleavage rate” value in assay [1] stood at 0.00233 ± 0.005; in assay [2], 0.000645 ± 0.012.

For GGAGACCUAUGAUAUGUACCUUACUACCUCA, the results for the “pre-steady-state target cleavage rate” value in assay [1] and in assay [2] were 0.000898 ± 0.0049 and 0.000309 ± 0.0064, respectively.

Consider GGAGACCUUACUAUACUUGCUACUACCUCA, for which the “pre-steady-state target cleavage rate” value stood at 0.0548 ± 0.0062 in assay [1] and 0.00197 ± 0.0025 in assay [2].

As to GGAGACCUAUGAUAUCAGACCUACUACCUCA, the “pre-steady-state target cleavage rate” value in assay [1] is 0.000239 ± 0.012; in assay [2], 0.00012 ± 0.025.

Take GGAGUGGAUACUAUACAACUCUACUACCUCA: the “pre-steady-state target cleavage rate” value in assay [1] came out at 0.00145 ± 0.0032; in assay [2], 0.000221 ± 0.031.

Consider GGAGACCUAUGAAUACAGCCUACUACCUCA, for which the “pre-steady-state target cleavage rate” value came out at 0.00194 ± 0.0041 in assay [1] and 0.00125 ± 0.0048 in assay [2].

“GGAGACCUAUGAUAUGUACCUACUACCUCC [g2:g13:cont:t1C]”: the “pre-steady-state target cleavage rate” value was determined as 0.000125 ± 0.025 in assay [1] and 0.000143 ± 0.013 in assay [2].

Turning to “GGAGACCUUACUAUACUUGGAUGAUGGAGA [g15:g22:cont:t1A]”, the “pre-steady-state target cleavage rate” value in assay [1] was determined as 0.000365 ± 0.016; in assay [2] it was 0.000397 ± 0.017.

Regarding GGAGACCUAUGAUAACAACGUACUACCACA, the “pre-steady-state target cleavage rate” value in assay [1] turned out to be 0.00128 ± 0.0045; in assay [2] it was 0.000509 ± 0.011.

Regarding GGAGACCUAUGAUUACUACCUUCUACCUCA, the “pre-steady-state target cleavage rate” value in assay [1] stood at 0.0014 ± 0.0037; in assay [2], 0.000383 ± 0.0052.

For GGAGACCUAUGAUUUCAACCUUCUACCUCA, the entries for the “pre-steady-state target cleavage rate” value in assay [1] and in assay [2] were 0.00225 ± 0.0026 and 0.000553 ± 0.0042, respectively.

GGAGACCUAUCUAUUGUACCUACUACCUCA: the “pre-steady-state target cleavage rate” value in assay [1] was 0.00242 ± 0.0032; in assay [2] it was 0.000531 ± 0.015.

On to GGAGACCUUACUAUACAAACCUACUACCUCA, for which the results for the “pre-steady-state target cleavage rate” value in assay [1] and in assay [2] were 0.00111 ± 0.0058 and 0.000196 ± 0.013, respectively.

As for GGAGACCUAUGAUAUGUACCUACUACCUUCA, the “pre-steady-state target cleavage rate” value in assay [1] was 0.000127 ± 0.017; in assay [2], 0.000195 ± 0.012.

GGAGACCUAUGAUUACAACCUUCUUCCUCA: the “pre-steady-state target cleavage rate” value in assay [1] was found to be 0.00148 ± 0.0036; in assay [2], 0.000416 ± 0.007.

For the sequence GGAGACCUAUGAUAUCUACCAACUACCUCA, the “pre-steady-state target cleavage rate” value was 0.000232 ± 0.012 in assay [1] and 0.000112 ± 0.018 in assay [2].

For the sequence GGAGACCUUACUAUACAACCGUACUACCUCA, the entries for the “pre-steady-state target cleavage rate” value in assay [1] and in assay [2] were 0.00868 ± 0.0053 and 0.000621 ± 0.016, respectively.

As to GGAGACCUAUGAUAUGUUGGUACUACGUCA, the “pre-steady-state target cleavage rate” value in assay [1] was found to be 0.0001 ± 0.035; in assay [2], 0.000131 ± 0.026.

GGAGACCUAUGAUUACAACGUACUACCUGA: the “pre-steady-state target cleavage rate” value in assay [1] was 0.00166 ± 0.0066; in assay [2], 0.000304 ± 0.012.

On to GGAGACCUAACUAUACAACCUCACUACCUCA, for which the entries for the “pre-steady-state target cleavage rate” value in assay [1] and in assay [2] were 0.00207 ± 0.009 and 0.00221 ± 0.0069, respectively.

In the case of GGAGACCUAUGAUAUGCACCUACUACCUCA, the “pre-steady-state target cleavage rate” value in assay [1] came to 0.000815 ± 0.0089; in assay [2] it was 0.000832 ± 0.0056.

For the sequence GGAGACCUAUGAUUACAUCCUUCUACCUCA, the “pre-steady-state target cleavage rate” value in assay [1] was found to be 0.00314 ± 0.0026; in assay [2], 0.00151 ± 0.003.

Consider GGAGACCUAUGAAUCCAACCUACUACCUCA, for which the figures for the “pre-steady-state target cleavage rate” value in assay [1] and in assay [2] were 0.0013 ± 0.0059 and 0.0015 ± 0.0056, respectively.

As to GGAGACCUAUGAUACCAACCUACUACCUCA, the “pre-steady-state target cleavage rate” value in assay [1] came to 0.00272 ± 0.0031; in assay [2], 0.00132 ± 0.0048.

“GGAGACCUUACUAUACAUGGAUGAUGGAGA [g14:g22:cont:t1A]”: the “pre-steady-state target cleavage rate” value in assay [1] turned out to be 0.000214 ± 0.021; in assay [2], 0.000269 ± 0.015.

Take GGAGACCUAUGAAUACACCUACUACCUCA: the “pre-steady-state target cleavage rate” value in assay [1] was 0.0011 ± 0.0059; in assay [2] it was 0.000821 ± 0.0052.

In the case of GGAGACCUAUCUAUUCAACCAACUACCUCA, the “pre-steady-state target cleavage rate” value in assay [1] came to 0.00282 ± 0.004; in assay [2], 0.0028 ± 0.0036.

For GGAGACCUUACUAUACAACCUUGAACCUCA, the “pre-steady-state target cleavage rate” value in assay [1] turned out to be 0.000166 ± 0.022; in assay [2], 0.000253 ± 0.014.

Turning to GGAGACCUAUGAUAACGACCUACUACCUCA, the “pre-steady-state target cleavage rate” value in assay [1] was 0.00253 ± 0.0035; in assay [2], 0.000198 ± 0.0087.

For GGAGACCUAUGAUAACAACCUUCUACCACA, the “pre-steady-state target cleavage rate” value was determined as 0.00111 ± 0.0052 in assay [1] and 0.000268 ± 0.007 in assay [2].

Regarding GGAGACCUAUGAAUACAACUACUACCUCA, the “pre-steady-state target cleavage rate” value in assay [1] came out at 0.000843 ± 0.0057; in assay [2] it was 0.000201 ± 0.011.

Take GGAGACCUAUGAAUACAACCUAGAUCCUCA: the “pre-steady-state target cleavage rate” value was 0.0017 ± 0.0044 in assay [1] and 0.000194 ± 0.012 in assay [2].

For the sequence GGAGACGAUACUAUACAUACCUACUACCUCA, the “pre-steady-state target cleavage rate” value in assay [1] is 0.00135 ± 0.0059; in assay [2] it was 0.000522 ± 0.012.
